About 760 (0.19%) of roughly 390,000 compounds were called active. This list was built around the results that the source calls inconclusive (neither active nor inactive); the mix of calls is not that of the screen. The call rests on the fitted dose curve; in most records, active means well fitted inhibition curve with a large enough effect; inconclusive means small, poorly fitted or top-dose-only effect; inactive means flat fitted curve, though single readings scatter. Potencies beside an inconclusive call are fits to weak or partial responses and may not hold up. Some structures have more than one record in an assay (separate samples or runs), and their calls can disagree.
test: qHTS for Inhibitors of Vif-A3F Interactions: qHTS; settings: HeLa A3F-eYFP + Vif (tagged APOBEC3F with the HIV-1 protein that degrades it), YFP fluorescence increase; series mostly up to 46.1 µM; further: nearly all actives have a fitted effect of over 65% in size
Summary of the method: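 HeLa cells stably expressing A3F-eYFP plus Vif, plated and incubated overnight at 37 deg C, then exposed to compounds overnight at 37 deg C. Blocked degradation read as raised yellow fluorescence (Ex 488/Em 500-530).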
Potency means the concentration at half of the fitted maximal effect.

SMILES | Potency
CCc1cc(-c2n[nH]c(=S)n2-c2cccc(C)c2)cs1 | inactive
CCN(CC)CCNC(=O)C(Cl)=C1C(Cl)=C(Cl)C(Cl)=C1Cl | inconclusive: 3.16 µM [inhibitor, single point]
COC(=O)c1cc(N2C(=O)C3C4C=CC(CC4)C3C2=O)ccc1Cl (stereo not drawn) | inconclusive: 3.55 µM [inhibitor, partial curve, poor fit]
COc1cc(C2C(C#N)=C(N)Oc3cc(C)oc(=O)c32)cc(OC)c1OC (stereo not drawn) | inconclusive: 35.5 µM [inhibitor, single point]
CCN(CC)S(=O)(=O)c1ccc(C)c(NC(=S)N2CCN(c3ccccn3)CC2)c1 | inactive
CCOc1ccc(N2C(=O)CC(Sc3ncccn3)C2=O)cc1 (stereo not drawn) | inactive
CC(=O)N1CCN(CCN2C(C)=CC(=C(C#N)C#N)C=C2C)CC1 | inconclusive: 3.16 µM [inhibitor, single point]
COc1ccc(C(=O)N/N=C/c2sc3ccccc3c2O)cc1 | inconclusive: 17.8 µM [inhibitor, partial curve, poor fit]
NC(=O)CC(NC(=O)Cc1cccc2ccccc12)c1ccc(NC2CCN(Cc3ccccc3)CC2)c([N+](=O)[O-])c1 (stereo not drawn) | inconclusive: 31.6 µM [inhibitor, single point]
OC(CNC1CCCc2ccccc21)COc1ccc2ccccc2c1 (stereo not drawn) | inconclusive: 35.5 µM [inhibitor, single point]
O=C(O)CNC(=O)CC1S/C(=N/N=C2\CSC(=O)N2)NC1=O (stereo not drawn) | inconclusive: 5.62 µM [inhibitor, single point]
CSc1ccc(C2NC(=O)c3c(sc4c3CCN(C)C4)N2)cc1 (stereo not drawn) | inconclusive: 31.6 µM [inhibitor, single point]
COc1ccccc1/C=C1\CCCC2=C1Nc1nnnn1C2c1ccccc1OC (stereo not drawn) | inactive
Cc1cc(NC(=O)CCC(=O)N(c2ccccc2)C(C(=O)NC2CCCCC2)c2cccs2)no1 (stereo not drawn) | inactive
COc1ccc(S(=O)(=O)N2CCCN(S(=O)(=O)c3ccc(OC)cc3C)CC2)c(C)c1 | inactive
Cc1ccc(-n2c(=O)c3c(C)c(C(=O)N(C)C)sc3n(CC(=O)C(C)(C)C)c2=O)cc1C | inactive
Cc1cc(C)nc(N/N=C/c2sccc2C)n1 | inactive
Cc1c(Cl)cccc1NC(=S)N1CCOCC1 | inconclusive: 5.62 µM [inhibitor, single point]
COc1ccc(NC(=O)c2ccc(NC(=O)C(C)C)cc2)c([N+](=O)[O-])c1 | active: 10 µM
COc1ccc(NC(=O)Cn2nnc(-c3ccccc3NC(=O)C3CC3)n2)cc1 | inconclusive: 35.5 µM [inhibitor, single point]
CCN=c1scc(-c2ccc3c(c2)NC(=O)CO3)n1N=C1CCCC1 | inconclusive: 35.5 µM [inhibitor, single point]
COc1nc(OCCNC(C)=O)nc(N(C)C)n1 | inconclusive: 3.16 µM [inhibitor, single point]
COc1ccc(OC)c(Nc2ncnc3sc(-c4ccccc4)cc23)c1 | inconclusive: 11.2 µM [inhibitor, partial curve]
C=CCc1ccccc1OCC(=O)NNC(=S)NCc1ccccc1 | inconclusive: 3.55 µM [inhibitor, single point]
COc1ccc2cc(C(=O)C3CCCN(Cc4cccc(C)n4)C3)ccc2c1 (stereo not drawn) | inconclusive: 6.31 µM [inhibitor, single point]

Grouped by structure, the compounds so far containing an aryl thioether with sulfur outside any ring.
SMILES | Potency
CCOc1ccc(N2C(=O)CC(Sc3ncccn3)C2=O)cc1 (stereo not drawn) | inactive
CSc1ccc(C2NC(=O)c3c(sc4c3CCN(C)C4)N2)cc1 (stereo not drawn) | inconclusive: 31.6 µM [inhibitor, single point]

The results go on.

SMILES | Potency
O=C(c1ccccc1)C1CCc2occc2C1=O (stereo not drawn) | inactive
COc1cc(NS(=O)(=O)c2ccc(NC(=S)NC(=O)/C=C/c3ccc(F)cc3)cc2)ncn1 | inactive
Cc1nn(C)c(C(=O)N2CCc3ccccc32)c1Br | inactive
Cc1ccc(CNC(=O)c2ccc(Cn3c(=O)c4ccccc4n(CC(=O)Nc4c(C)cc(C)cc4C)c3=O)cc2)cc1 | inconclusive: 17.8 µM [inhibitor, single point]
CCOC(=O)C(=CNc1nc(-c2ccccc2)c(C(=O)Nc2ccc(-c3ccccc3)cc2)s1)C(=O)OCC | inconclusive: 3.16 µM [inhibitor, single point]
O=Nc1c(O)ccc2cc(S(=O)(=O)O)ccc12 | inactive
CC(C)c1ccc(C2=NN(c3ccccc3)C(=O)CC2)cc1 | inconclusive: 3.55 µM [inhibitor, partial curve, poor fit]
Cc1noc(C)c1CSc1nc2sc(C)c(C)c2c(=O)n1-c1ccccc1 | inactive
O=C(NCCNc1ccc([N+](=O)[O-])cc1)c1cccc(Br)c1 | inconclusive: 15.8 µM [inhibitor, partial curve, poor fit]
Cc1cc(C)c2c(n1)sc1c(-c3ccccc3)c(C#N)c(N)nc12 | inactive
O=c1oc2ccc3ccccc3c2cc1-c1nnc(Nc2ccccc2F)s1 | inconclusive: 3.55 µM [inhibitor, partial curve, poor fit]
Nc1ccc2c(c1)OC1(CCCC1)O2 | inactive
COc1ccc(CNc2ccc3c(c2)ncn3-c2ccccc2OC)cc1 | inactive
CC1(c2ccc(OCC(N)=O)cc2)NC(=O)NC1=O (stereo not drawn) | inactive
NC(=O)C[n+]1cccc(C(N)=O)c1 | inconclusive: 22.4 µM [inhibitor, single point]
CCN(CC)C(=O)Cn1c(=O)n(-c2ccccc2)c(=O)c2c3c(sc21)CCC3 | active: 11.2 µM
COC1C(CO)OC(n2c3c(Cl)cccc3c3c4c(c5c6cccc(Cl)c6[nH]c5c32)C(=O)NC4=O)C(O)C1O (stereo not drawn) | inconclusive: 15.8 µM [inhibitor, partial curve, poor fit]
COc1ccc(Cn2c(N)c(C#N)c3nc4ccccc4nc32)cc1OC | inactive
CN(C)c1nc(N/N=C/c2c[nH]c3ccccc23)nc(N2CCOCC2)n1 | inactive
CN(CC(=O)Nc1ccc(Cl)c(C(F)(F)F)c1)C(=O)C1CSC2(C)CCC(=O)N12 (stereo not drawn) | inconclusive: 0.316 µM [inhibitor, full curve, poor fit]
CCCOc1ccc(N)cc1N | active: 22.4 µM
CCOc1ccc(CN2CCN(Cc3cccn3-c3cccnc3)CC2CCO)cc1 (stereo not drawn) | inconclusive: 1.78 µM [inhibitor, partial curve, poor fit]
COc1ccc(CNC(=O)CN2C(=O)CC(c3ccccc3)=Nc3ccccc32)cc1 | inconclusive: 35.5 µM [inhibitor, single point]
Oc1nc(Nc2ccc(Cl)cc2Cl)sc1/C=C1\C=Nc2ccccc21 | inconclusive: 20 µM [inhibitor, single point]
Nc1c2ccccc2nc2ccccc12 | inconclusive: 22.4 µM [inhibitor, single point]

SMILES | Potency
CC(=O)C1=C(NC(=O)c2ccc(C(F)(F)F)cc2)C[C@@H]2[C@H]1C2(C)C | inconclusive: 6.31 µM [inhibitor, single point]
O=C1Cc2ccccc2C(=O)N1Cc1ccccc1 | inactive
O=C(CN1CCN(c2ccc([N+](=O)[O-])cc2)CC1)c1ccccc1 | inconclusive: 3.98 µM [inhibitor, partial curve, poor fit]
CC1=CC2=NC(=O)/C(=C\c3ccc(-c4cccc(Cl)c4)o3)C(=N)N2O1 | inconclusive: 12.6 µM [inhibitor, partial curve, poor fit]
Cc1cc(C)c2c(c1)NC(C(=O)O)C1CC=CC21 (stereo not drawn) | inactive
Cc1ccc(NCc2ccccc2O)cc1 | inactive
CC(C)=CCC1=C(OCC(=O)O)C(=O)c2ccccc2C1=O | inactive
O=Cc1ccc2noc(-c3ccc(F)cc3)c2c1 | inactive
O=S(=O)(c1ccccc1)N1CCN(c2ccnc3cc(Cl)ccc23)CC1 | inactive
CC(=O)Nc1cccc(N/C=C(\C=O)c2nc3ccccc3o2)c1 | inconclusive: 25.1 µM [inhibitor, partial curve, poor fit]
NC(=O)CC(NC(=O)c1ccccc1)c1ccc(NC2CCCC2)c([N+](=O)[O-])c1 (stereo not drawn) | inconclusive: 22.4 µM [inhibitor, single point]
Cc1cc(NCCCOC(C)C)n2c(nc3ccccc32)c1C#N | inconclusive: 35.5 µM [inhibitor, single point]
CCn1c(=O)c(C(=O)NNC(=O)Cc2ccccc2)c(O)c2ccccc21 | inconclusive: 3.16 µM [inhibitor, partial curve, poor fit]
Cc1nc(SCC(=O)NCc2cccs2)nc(C)c1C | inconclusive: 10 µM [inhibitor, partial curve, poor fit]
Cc1cccc(C)c1Nc1nnc(SCc2nc3ccccc3s2)s1 | inconclusive: 35.5 µM [inhibitor, single point]
CN(C)CCCN(C(=O)/C=C/c1cccs1)c1nc2ccc(F)cc2s1 | active: 11.2 µM
COC(=O)c1cn(-c2cccc(C)n2)cn1 | inconclusive: 25.1 µM [inhibitor, single point]
Cc1cc(C)n(Cc2ccc(C(=O)Nc3cccc(Br)c3)o2)n1 | inactive
CCNc1ccc(C(=O)O)cc1N | inactive
Cc1ccc(S(=O)(=O)N(CC(=O)Nc2ccc(Cl)cc2Cl)c2ccccc2C)cc1 | inactive
COc1ccc(-c2csc(NC(=O)C3=COCCO3)n2)c(OC)c1 | inconclusive: 5.62 µM [inhibitor, single point]
NC(=O)CC(NC(=O)c1ccc(Br)cc1)c1ccc(NCc2ccc(F)cc2)c([N+](=O)[O-])c1 (stereo not drawn) | inconclusive: 31.6 µM [inhibitor, single point]
O=C(NC(=S)N1CCCCC1CO)c1cc(Br)ccc1Cl (stereo not drawn) | inconclusive: 20 µM [inhibitor, partial curve, poor fit]
